PubChem BioAssay AID504467 (National Center for Advancing Translational Sciences (NCATS), 2011)
In all, about 330,000 compounds went through this assay and about 7,700 (2.3%) were called active. This list was built around the results that the source calls inconclusive (neither active nor inactive); the mix of calls is not that of the screen. Calls come from the whole dose curve; as a rule, active = well fitted inhibition curve with a large enough effect; inconclusive = small, poorly fitted or top-dose-only effect, or effect the other way; inactive = flat fitted curve, though single readings scatter. Where the call is inconclusive, the potency comes from a doubtful curve fit.

Experiment: qHTS screen for small molecules that inhibit ELG1-dependent DNA repair in human embryonic kidney (HEK293T) cells expressing luciferase-tagged ELG1; note: nearly all actives have a fitted effect of over 55% in size
Details: HEK293T ELG1-luciferase reporter, luminescence, 16 h, DNA damage induced by 5-fluorouridine; activity change, negative = inhibition: at 46.1 µM (top of the series)
In short: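 Reporter activity after DNA damage by 5-fluorouridine is monitored. Compound-treated cells incubate 16 hr at 37 °C, then ONE-Glo is added for 30 min before luminescence reading.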
% is set by controls: 0 for no effect and ±100 for the full control effect; potency is the fitted concentration of half-maximal effect.

**Q.** For `CCn1c(SC(=O)NC2CCCCC2)nnc1-c1cccs1`, which Potency is on record?
**A.** inconclusive: 5.8 µM [activator, full curve]

**Q.** Which Potency does the source give for `COC(=O)c1c(NC(=O)CS(=O)(=O)c2ccccc2)sc(C)c1C` here?
**A.** inconclusive: 29.1 µM [inhibitor, single point]

**Q.** For `COC(=O)Cc1c(C)c2ccc(OC3CCCCC3=O)cc2oc1=O` (stereo not given), which Potency is on record?
**A.** inconclusive: 29.1 µM [activator, single point]

**Q.** Which Potency does the source give for `CCc1c(C)nc2c(-c3ccccc3OC)c(C)[nH]n2c1=O` here?
**A.** inconclusive: 12.6 µM [inhibitor, partial curve, poor fit]

**Q.** Which Potency does the source give for `Cc1c2cnn(CC(=O)NCCCN3CCCCC3)c(=O)c2c(C)n1Cc1ccccc1` here?
**A.** inconclusive: 29.1 µM [activator, partial curve, poor fit]

**Q.** Which Potency does the source give for `CCn1c(CNC(=O)Cc2ccc(OC)cc2)nnc1SCC(=O)Nc1ccc(C(=O)O)cc1` here?
**A.** inconclusive: 29.1 µM [inhibitor, single point]

**Q.** With `COc1ccc(OC)c(S(=O)(=O)NNC(=S)Nc2ccc3c(c2)OCO3)c1` as the molecule, how does the “activity change, negative = inhibition” value read?
**A.** inactive: 7.35%

**Q.** For `O=c1[nH][nH]c(=O)c2c(NS(=O)(=O)c3ccccc3)cccc12`, which Potency is on record?
**A.** inconclusive: 29.1 µM [activator, single point]

**Q.** Which “activity change, negative = inhibition” value does the source give for `CCOC(=O)c1ccc(NC(=S)N(CCCN2CCN(CC)CC2)Cc2cccs2)cc1` here?
**A.** inactive: -8.46%

**Q.** With `COC(=O)c1ccc(CO/N=C/c2ccc(OC)cc2)o1` as the molecule, how does the Potency read?
**A.** inconclusive: 13 µM [activator, partial curve]

**Q.** Which Potency does the source give for `CCc1ccc(-n2cc(-c3ccc(F)cc3)[n+]3c2SCCC3)cc1` here?
**A.** active: 4.61 µM

**Q.** With `COc1cc(OC)cc(C(=O)NCCSCc2ccc(Cl)cc2)c1` as the molecule, how does the Potency read?
**A.** inconclusive: 25.1 µM [inhibitor, single point]

**Q.** For `O=C(Nc1cccc(-c2cccc(Cl)c2)c1)C1CCN(Cc2ccon2)CC1`, which “activity change, negative = inhibition” value is on record?
**A.** inactive: -14.5%

**Q.** Which Potency does the source give for `O=C(Nc1nccs1)c1ccc(CSc2ccccc2)o1` here?
**A.** inconclusive: 5.17 µM [activator, partial curve]

**Q.** Which Potency does the source give for `O=C1C(=C(c2ccccc2)c2ccccc2)Nc2ccccc21` here?
**A.** inconclusive: 23.1 µM [inhibitor, partial curve, poor fit]

**Q.** For `COc1ccccc1CNC(=O)Cn1cccc1C(=O)c1ccccc1C`, which Potency is on record?
**A.** inconclusive: 20.6 µM [activator, partial curve]

**Q.** Which Potency does the source give for `Cc1ccc(S(=O)(=O)NCCNS(=O)(=O)c2ccc(C)cc2)cc1` here?
**A.** inconclusive: 11.6 µM [inhibitor, partial curve]

**Q.** For `O=S(=O)(NC1CCC(NS(=O)(=O)c2c(F)cccc2F)CC1)c1ccc2c(c1)OCCO2` (stereo not given), which Potency is on record?
**A.** inconclusive: 18.3 µM [inhibitor, single point]

**Q.** For `Cc1cccc(-c2nc(CSCC(=O)N3CCN(c4ccccn4)CC3)c(C)o2)c1`, which Potency is on record?
**A.** inconclusive: 15.8 µM [inhibitor, single point]

**Q.** For `Cc1ccc(C(=O)Nc2ccc3c(c2)OCCO3)cc1S(=O)(=O)N1CCOCC1`, which Potency is on record?
**A.** inconclusive: 2.31 µM [activator, partial curve]

**Q.** With `O=C(NNC(=O)c1cccs1)c1ccccc1` as the molecule, how does the Potency read?
**A.** inconclusive: 18.3 µM [activator, single point]

**Q.** For `NC(=O)c1ccc(NC(=O)COC(=O)/C=C/c2cn(-c3ccccc3)nc2-c2cccnc2)cc1`, which Potency is on record?
**A.** inconclusive: 2.06 µM [inhibitor, full curve]

**Q.** For `CC(C)Oc1ccc(C(=O)Nc2ccc3c(c2)n(C)c(=O)n3C)cc1`, which Potency is on record?
**A.** inconclusive: 16.4 µM [activator, partial curve]

**Q.** With `O=C(O)c1ccccc1N/N=C\c1ccnc2ccccc12` as the molecule, how does the Potency read?
**A.** inconclusive: 1.3 µM [activator, full curve]

**Q.** With `CC(C)(C)c1ccc(-c2n[nH]c(=S)n2C2CCCC2)cc1` as the molecule, how does the Potency read?
**A.** inconclusive: 5.17 µM [inhibitor, full curve]

**Q.** For `CCOC(=O)c1nnn(-c2nn3nnnc3c3ccccc23)c1C`, which Potency is on record?
**A.** inconclusive: 32.6 µM [inhibitor, partial curve, poor fit]

**Q.** For `CCOC(=O)c1c(-c2ccccc2)oc2ccc(O)c(CN3CCOCC3)c12`, which Potency is on record?
**A.** inconclusive: 20.6 µM [inhibitor, single point]

**Q.** For `CCCC(=O)Nc1nnc(SCC)s1`, which Potency is on record?
**A.** inconclusive: 20.6 µM [activator, partial curve, poor fit]

**Q.** Which Potency does the source give for `CC(=O)c1ccc(N(CC(=O)NC2CCCC2)C(=O)c2csnn2)cc1` here?
**A.** inconclusive: 18.3 µM [activator, single point]

**Q.** For `COc1oc(-c2ccc(Cl)cc2)nc1C(F)(F)F`, which Potency is on record?
**A.** inconclusive: 6.51 µM [activator, full curve, poor fit]

**Q.** For `CCOc1ccc(/C=C2/SC(=S)N(n3c(C)ccc3C)C2=O)cc1`, which “activity change, negative = inhibition” value is on record?
**A.** inactive: 13.5%

**Q.** For `COc1ccccc1N1CCN(C(=O)CCC(=O)N2CCN(c3ccccc3OC)CC2)CC1`, which “activity change, negative = inhibition” value is on record?
**A.** inactive: -25%

**Q.** Which Potency does the source give for `N#CC1=C(N)C(C#N)(C#N)C(c2cccnc2)C2CN(C(=O)OCc3ccccc3)CC=C12` (stereo not given) here?
**A.** inconclusive: 25.9 µM [inhibitor, single point]

**Q.** Which Potency does the source give for `Cc1cccc2sc(NC(=O)CCNS(=O)(=O)c3cccs3)nc12` here?
**A.** inconclusive: 13 µM [inhibitor, single point]

**Q.** For `O=C1CCCN2N=C(SCC(=O)Nc3cccc(Cl)c3)SC2=N1`, which Potency is on record?
**A.** inconclusive: 9.2 µM [inhibitor, partial curve, poor fit]

**Q.** For `O=C(Nc1ccc([N+](=O)[O-])cc1)c1ccccc1F`, which Potency is on record?
**A.** inconclusive: 18.3 µM [activator, partial curve]

**Q.** With `CCOC(=O)N1CCN(S(=O)(=O)c2c(C)[nH]c(=O)[nH]c2=O)CC1` as the molecule, how does the “activity change, negative = inhibition” value read?
**A.** inactive: 9.35%

**Q.** With `CC1CCN(C(=O)COC(=O)CNC(=O)C23CC4CC(CC(C4)C2)C3)CC1` as the molecule, how does the “activity change, negative = inhibition” value read?
**A.** inactive: -2.1%

**Q.** Which “activity change, negative = inhibition” value does the source give for `O=C(COC(=O)COc1ccccc1[N+](=O)[O-])NC1CCCCC1` here?
**A.** inactive: 13.1%

**Q.** For `CCc1ccc(C(=O)Nc2cc(S(=O)(=O)N3CCOCC3)ccc2N2CCOCC2)cc1`, which Potency is on record?
**A.** inconclusive: 5.8 µM [inhibitor, single point]

**Q.** Which Potency does the source give for `OCCNc1ncnc2c1sc1nc(N3CCOCC3)c3c(c12)CCC3` here?
**A.** inconclusive: 29.1 µM [inhibitor, single point]

**Q.** With `O=C(Nc1ccc(Cl)cc1)Nc1nc(-c2sccc2Br)cs1` as the molecule, how does the Potency read?
**A.** inconclusive: 29.1 µM [activator, single point]

**Q.** With `COc1ccc(S(=O)(=O)N2CCCCCC2)cc1C(=O)OCc1cccc(OC)c1OC` as the molecule, how does the Potency read?
**A.** inconclusive: 29.1 µM [inhibitor, single point]

**Q.** For `CC1CN(Cc2cc(=O)[nH]c(C3CC3)n2)CC(C)O1` (stereo not given), which “activity change, negative = inhibition” value is on record?
**A.** inactive: -24.7%

**Q.** Which Potency does the source give for `CCN(CC)CCN(Cc1cc2cccc(C)c2[nH]c1=O)C(=S)Nc1ccccc1` here?
**A.** inconclusive: 32.6 µM [inhibitor, partial curve, poor fit]

**Q.** Which Potency does the source give for `COc1ccc(NC(=S)NNc2ccc([N+](=O)[O-])cc2S(=O)(=O)Nc2ccc(C)cc2C)cc1` here?
**A.** inconclusive: 29.1 µM [inhibitor, single point]

**Q.** For `O=C(CCC1CCCC1)NCCCNC(=O)CCC1CCCC1`, which “activity change, negative = inhibition” value is on record?
**A.** inactive: -11.4%

**Q.** For `COc1ccc(N2CCN(C(CNC(=O)c3ccc4c(c3)OCO4)c3ccco3)CC2)cc1` (stereo not given), which Potency is on record?
**A.** inconclusive: 29.1 µM [inhibitor, single point]

**Q.** For `COC(=O)C1=C(C(=O)OC)[C@@H]2N(C)c3ccccc3[C@@]23C[C@@H](C(=O)OC)N(C(=O)c2ccc(Br)cc2)C3=N1`, which Potency is on record?
**A.** inconclusive: 29.1 µM [inhibitor, single point]

**Q.** With `N#Cc1c(NC(=O)CN2CCN(C(=O)c3ccco3)CC2)sc2c1CCCCC2` as the molecule, how does the Potency read?
**A.** inconclusive: 20.6 µM [inhibitor, partial curve]

**Q.** Which “activity change, negative = inhibition” value does the source give for `O=C(Nc1cccc(O)c1)N1CCOCC1` here?
**A.** inactive: 9.02%

**Q.** With `COc1cccc(C2=NN(C(=O)c3ccco3)C(O)(C(F)(F)F)C2)c1` (stereo not given) as the molecule, how does the Potency read?
**A.** inconclusive: 29.1 µM [inhibitor, partial curve, poor fit]

**Q.** For `Cc1cc(C)n(-c2nc(Nc3ccccc3C)nc(-n3nc(C)cc3C)n2)n1`, which Potency is on record?
**A.** inconclusive: 12.6 µM [inhibitor, partial curve, poor fit]

**Q.** With `Cc1ccc(-c2csc(/C(C#N)=C/Nc3ccc4c(c3)OCCO4)n2)cc1` as the molecule, how does the “activity change, negative = inhibition” value read?
**A.** inactive: -10.1%

**Q.** For `O=C1Cc2cc([N+](=O)[O-])ccc2N1c1c(Cl)cccc1Cl`, which “activity change, negative = inhibition” value is on record?
**A.** inactive: -8.66%

**Q.** With `Cn1cc(S(=O)(=O)N2CCCC2)cc1C(=O)N1CCN(c2cccc(Cl)c2)CC1` as the molecule, how does the Potency read?
**A.** inconclusive: 29.1 µM [inhibitor, partial curve, poor fit]

**Q.** For `CCCCC(=O)Nc1cc(C(=O)NCCc2ccccc2)ccc1Cl`, which Potency is on record?
**A.** inconclusive: 16.4 µM [activator, partial curve]

**Q.** For `CCN(CC(=O)NCc1cccs1)C(=O)/C=C/c1cc(Br)ccc1OC(F)F`, which Potency is on record?
**A.** inconclusive: 20 µM [inhibitor, partial curve, poor fit]

**Q.** Which Potency does the source give for `CO/N=C(\c1nonc1N)N1CCN(c2ccc(Cl)cc2[N+](=O)[O-])CC1` here?
**A.** inconclusive: 10.3 µM [inhibitor, partial curve, poor fit]

**Q.** With `COC(=O)C1CCN(C(=O)NC2CC(=O)N(c3ccc4c(c3)OCCO4)C2)CC1` (stereo not given) as the molecule, how does the “activity change, negative = inhibition” value read?
**A.** inactive: 5.95%

**Q.** With `CCN(CC)CCCNC(=O)c1ccc(N2CCCCC2)c(NS(=O)(=O)c2ccc(C)cc2)c1` as the molecule, how does the Potency read?
**A.** inconclusive: 29.1 µM [activator, single point]

**Q.** With `CC(=O)Nc1ccc(S(=O)(=O)N2CCN(Cc3cccc([N+](=O)[O-])c3)CC2)cc1` as the molecule, how does the Potency read?
**A.** inconclusive: 20.6 µM [inhibitor, partial curve]

**Q.** Which Potency does the source give for `NC(=O)c1ccsc1NC(=O)c1ccco1` here?
**A.** inconclusive: 20.6 µM [activator, single point]

**Q.** For `CCN1C(=O)S/C(=C\c2ccc(N3CCOCC3)cc2C)C1=O`, which Potency is on record?
**A.** inconclusive: 2.31 µM [activator, partial curve]

**Q.** With `O=C(CNCC1CCCO1)Nc1ccccc1N1CCCCCC1` (stereo not given) as the molecule, how does the “activity change, negative = inhibition” value read?
**A.** inactive: -2.87%
